In assay [1] the target is T1, TKD motif of hHsp70 (14-mer peptide) (human).
T1 sequence (peptide): TKDNNLLGRFELSG
The experiment in a line: ELISA; assay repeated with the TKD motifs of PfHsp70-x and hHsp70 and GrB; both purified. In general terms: An ELISA detects its analyte on a solid surface through an enzyme-linked reagent.

Sequences of proteins named here, by UniProt entry; tags and fusion partners are left off. A change or cut given only in a name is not applied to a line headed by its entry. Residues count along the entry.
UniProt P0DMV8: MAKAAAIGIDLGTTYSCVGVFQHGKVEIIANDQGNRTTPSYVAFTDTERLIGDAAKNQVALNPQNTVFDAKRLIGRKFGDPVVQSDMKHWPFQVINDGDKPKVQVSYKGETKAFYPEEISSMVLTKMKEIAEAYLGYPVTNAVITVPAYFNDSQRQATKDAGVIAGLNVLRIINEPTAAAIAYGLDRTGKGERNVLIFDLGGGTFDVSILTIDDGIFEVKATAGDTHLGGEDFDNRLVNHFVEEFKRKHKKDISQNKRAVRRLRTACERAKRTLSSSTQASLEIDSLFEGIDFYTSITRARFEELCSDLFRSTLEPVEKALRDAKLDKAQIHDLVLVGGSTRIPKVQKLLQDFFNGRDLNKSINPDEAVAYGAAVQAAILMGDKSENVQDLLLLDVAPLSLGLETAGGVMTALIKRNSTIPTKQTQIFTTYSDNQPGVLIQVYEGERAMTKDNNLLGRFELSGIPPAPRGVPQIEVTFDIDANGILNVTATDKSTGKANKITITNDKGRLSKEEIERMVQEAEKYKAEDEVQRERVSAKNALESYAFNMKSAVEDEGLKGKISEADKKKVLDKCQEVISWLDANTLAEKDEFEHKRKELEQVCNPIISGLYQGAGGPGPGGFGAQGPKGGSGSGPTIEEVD
UniProt P02769, residues 25-607: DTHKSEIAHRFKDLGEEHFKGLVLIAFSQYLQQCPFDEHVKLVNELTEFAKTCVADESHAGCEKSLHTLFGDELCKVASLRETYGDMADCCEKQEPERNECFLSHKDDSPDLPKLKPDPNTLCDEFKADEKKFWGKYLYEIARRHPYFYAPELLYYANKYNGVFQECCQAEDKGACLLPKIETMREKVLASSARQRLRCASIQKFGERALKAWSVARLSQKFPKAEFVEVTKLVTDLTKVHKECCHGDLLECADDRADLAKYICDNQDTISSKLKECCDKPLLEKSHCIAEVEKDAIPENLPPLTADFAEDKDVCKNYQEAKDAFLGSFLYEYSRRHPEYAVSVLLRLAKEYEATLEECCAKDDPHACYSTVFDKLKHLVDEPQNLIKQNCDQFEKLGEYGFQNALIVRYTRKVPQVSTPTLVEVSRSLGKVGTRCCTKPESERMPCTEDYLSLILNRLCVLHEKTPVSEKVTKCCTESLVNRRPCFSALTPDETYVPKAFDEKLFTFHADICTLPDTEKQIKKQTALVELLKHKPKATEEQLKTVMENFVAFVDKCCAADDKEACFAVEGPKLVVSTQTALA
UniProt P10144: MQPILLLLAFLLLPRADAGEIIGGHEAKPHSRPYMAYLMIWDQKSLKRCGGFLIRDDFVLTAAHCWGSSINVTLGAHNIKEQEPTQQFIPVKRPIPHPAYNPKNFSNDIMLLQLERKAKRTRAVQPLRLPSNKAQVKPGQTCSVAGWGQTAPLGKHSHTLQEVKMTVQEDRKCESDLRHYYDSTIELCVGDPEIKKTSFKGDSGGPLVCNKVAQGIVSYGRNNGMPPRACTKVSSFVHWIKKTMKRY

Assay [2] has as its target T2, synthetic TKD peptide representing the 14-mer TKD motif of PfHsp70-x (P. falciparum).
T2 sequence (peptide): TKDNNLLGKFQLEG
The assay is described as above.

For assay [3], the target named is human Hsp70 (human) (UniProt P0DMV8). Briefly: far-Western, overlay or dot blot; slot blot: proteins or peptides (5, 10, 20 μg) immobilised on nitrocellulose, overlaid with GrB (10 μg/mL) in 5% fat-free milk overnight at 4 °C, detected with α-GrB; Hsp70s without nucleotide or with 5 mM ADP or ATP; both purified.
Assay [4] concerns the target bovine serum albumin (bovine) (UniProt P02769). Described as above.
Assay [5] has as its target T2, synthetic TKD peptide representing the 14-mer TKD motif of PfHsp70-x (P. falciparum). The description is as above.
Assay [6] deals with human Hsp70 (human) (UniProt P0DMV8). Briefly: ELISA; Hsp70 proteins (5 μg) adsorbed on the plate, GrB 0-1000 nM in 2.5% fat-free milk in TBS, 25 °C, 2 h, detected with α-GrB; repeated with 5 mM ATP/ADP; both purified.

From PMC10167072, “Human granzyme B binds Plasmodium falciparum Hsp70-x and mediates antiplasmodial activity in vitro” (Cell Stress & Chaperones, 2023) come the findings set out here.

These are yes or no findings as the source states them, for the method shown. For part of these data: Binding calls can cover weak binding; strength is not graded here.

Consider “human granzyme B (from UniProt P10144) (enzyme)”, for which the binding result in assay [1] is “binds”; in assay [2], “binds”; with human Hsp70 (human) [3], “binds”; in assay [4], “no binding (tested: 10 μg/mL GrB)”; in assay [5], “binds”; in the assay with human Hsp70 (human) [6] it was “binds”.
